# Experimental data reported in PubChem BioAssay AID1508600 (Functional Genomics Laboratory (NCATS/FGL), 2020).
# Hit rate of the full screen: of about 53,000 sequences, about 3,700 (7%) were called active.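 Rule for the calls: active = gene knockdowns whose robust z-score for IL-1 alpha signal is at least 2 or at most -2, so actives lie on both sides; inactive = the rest.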 This is one part of the list.
# Assay: Components of the Cytosolic LPS Sensing Pathway: Gene Identification via Genome-wide siRNA Screen;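 note: robust z of the log signal after scaling to non-targeting control siRNA wells of the plate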
# Details: RAW264.7 macrophages, IL-1a HTRF, actives lie on both sides, screened at 100 nM (by protocol), cells primed 5 h with Pam3CSK4 first
# How it was run: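 Read-out: IL-1a HTRF on supernatant, divided by plate negative-control median ×100, log-transformed and converted to robust z-score. Cells were RAW264.7 given 100 nM siRNA, Pam3CSK4-primed 5 hours, then LipidA-transfected 24 hour.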
row,Sequence,z-score
1,GGACGUGUUCGGAAACCUATT against Psmc3ip,inactive: 0.134
2,GGAGCAGUAUAUCCUACAUTT against Olfr510,active: 2.82
3,GCUAAUCCAGGACUGUUUATT against Trim14,inactive: -1.66
4,CGGUGCGAUCUCUCAAAGUTT against Cryba4,active: 2.97
5,GGAAGAAAAACUGAAGAGATT against Ctsr,inactive: 0.63
6,GGAAAUGAGUCAACUGUACTT against Pappa,inactive: 0.0401
7,GCUCAUGGAUACGUCACUATT against Map2k6,inactive: -0.975
8,CCAAUAACUCUAAAUAGGCTT against Trhr,inactive: 0.308
9,GCUUCGUGUGCUUUACCUGTT against Lrrc24,inactive: 0.503
10,GCAAUAUGUGACAAACUUCTT against Ptpn22,active: 2.06
11,GGUAAUCGUGUAUUCAUAUTT against Dph5,inactive: -0.327
12,GCAGACGAGUACCUAGAAATT against Gbp7,inactive: -0.334
13,GGUCAAACACAGUUCAAAGTT against Poglut3,inactive: 1.75
14,GGAAGAGUGCGUUUACCUUTT against Rrp12,inactive: 0.388
15,GCUCACAAUGCUACAUCAATT against Fam178b,inactive: 0.0528
16,GCCAGGUCUGAAGAACUGUTT against Rap1b,inactive: -0.261
17,GGUUUGGCAGAAGUGCAUGTT against Npff,inactive: -0.801
18,GCACUCUCUACUCUAUUAATT against Ackr2,active: 2.68
19,GCACAACCAAUUACGUGGCTT against Gpnmb,inactive: -0.149
20,UGCCAUGAGUCAGCUUUUGTT against Olfr1301,inactive: -0.536
21,GGUCCCAUUCAGUGUGUGUTT against Cdk10,active: 2.98
22,GGCUUACUUCCAAAGACUUTT against Naalad2,inactive: 0.0534

# Three entries drawn at random from those above:
row,Sequence,z-score
6,GGAAAUGAGUCAACUGUACTT against Pappa,inactive: 0.0401
5,GGAAGAAAAACUGAAGAGATT against Ctsr,inactive: 0.63
8,CCAAUAACUCUAAAUAGGCTT against Trhr,inactive: 0.308

# The list continues:

row,Sequence,z-score
1,GGAUUCCAGAACAAACACATT against Plekhb2,inactive: -1.36
2,GGAGAAGAAGACCAAUGAGTT against Rabgef1,inactive: -1.35
3,CCCUAUACGACUAGCUCUGTT against Tmprss11f,inactive: -0.48
4,GCGAUUGGCCCAAAAAUGCTT against Olfr1151,inactive: 0.225
5,CCCACCUCAACAUGAGAACTT against Gsdme,inactive: 0.605
6,GGGUGUACCUUAUGUAUUATT against Prpf4,inactive: 1.03
7,GGAAACUGUUGAAUCUUGUTT against Smad5,inactive: 1.42
8,CCUACUUGAGGUUCAUCGUTT against Zmynd11,inactive: 0.591
9,GCAUGAUUUAGAUCGAGUATT against Uqcrfs1,inactive: -0.268
10,CCAGUUUGGUAAUCAUGAATT against Cyb561d2,inactive: -0.244
11,CCUGGCCGUCAUAGAUCUCTT against Olfr464,inactive: -0.0808
12,GGGAAAUCUUCAUUUCUUUTT against Nsd1,inactive: 0.153
13,GCUAGCAACAUCUUGGGCATT against Cntn2,inactive: 0.849
14,GGAUGAUCACAAAGGUAUATT against 4632404H12Rik,inactive: 0.0665
15,GGUUCGACGAAGAUCAGAGTT against Akap1,inactive: -0.634
16,GCAAAAUAGAUCAGUAUUCTT against Gabra6,inactive: 0.516
17,GGGUAUGCUCAUCAUGCUGTT against Mfsd7a,inactive: -1.69
18,GGAGAUGUGUCCUUGACGATT against Havcr1,inactive: -0.0613
19,GCUGCAUUUUUUGGCAGAGTT against Dennd2d,inactive: -1.42
20,CCGAAGCAUGAAGAAUCUATT against Tubd1,inactive: 0.544
21,GGGUGAGAUGAAAUGCAUCTT against Efemp2,inactive: 0.264
22,GGAUGAAAAUCAAAGAAGUTT against Sfrp1,inactive: -0.315

row,Sequence,z-score
1,CCAGGAUACGGUGUGGUAUTT against Prss21,inactive: -0.355
2,GGUGUUGGCUCACAACCAATT against Fam234b,inactive: -1.67
3,GGAAGAAUGGUUAAAGGGATT against Dcun1d5,inactive: 0.609
4,GGCAGCUAUUGCUCUGGAATT against 5730596B20Rik,inactive: -0.293
5,GGUAGAUAUCCUUGAGUACTT against Mettl7a1,inactive: 0.81
6,CCAUUAAUGCAGACACUACTT against Amy2a5,inactive: -0.909
7,GCAGAAAGAAUGCAGAUAATT against Zfp281,inactive: 0.777
8,GGAUACUCUGGAGAAGUGUTT against Fblim1,inactive: -0.785
9,GUGUCUUGGGAAACAACUUTT against Gchfr,inactive: 1.67
10,GGAGUAUGAAUUUGUGACUTT against Arhgdig,inactive: -0.526
11,GGAAGUAAACCUUCAUGAATT against Cd40lg,inactive: 0.911
12,GGUUCUCAGUCAUAUUUACTT against Fbxl12,inactive: 1.08
13,CCAGUUUAUUGAGAAUAAGTT against Rab4b,inactive: 0.531
14,GCAUUGUGGAACAAACCUATT against Gabpa,inactive: 0.929
15,GGCCACCUUGUGUUUAUCUTT against Lrg1,inactive: -1.57
16,GGGAUACUGGUGCUUAACUTT against Abhd1,inactive: -0.189
17,CGAAAGGGAGAAAUUUGCUTT against Cemip,inactive: 0.0398
18,GGAGAGUAAAUACCGACAGTT against Homer2,inactive: -0.133
19,GGAACGAGAAGAAAUUUAGTT against Pbld2,inactive: -1.1
20,GGUUCCUAAACAUACUUGUTT against Swi5,inactive: 0.478
21,GGAAGUAUUUGAUCAUGGATT against Smarca5,inactive: -0.465
22,GGAAGACUGGUACACAUAATT against Tmem43,active: -2.32

row,Sequence,z-score
1,CGAAGUUCAUUCCUGUCUATT against Myf6,inactive: -0.664
2,GGUGAAGUGGAAGAUUCGGTT against Ror2,inactive: -1.05
3,GGACAUCAAGCCCUUACCATT against Rxrg,inactive: -1.96
4,GGAGACCAAAUGCUAGACGTT against Fam32a,inactive: -1.67
5,GGCUCCAAAUCAAACUCUATT against Eif4e3,active: 2.19
6,GCCUGUGCAAAAAGUAGGGTT against Grasp,inactive: -0.0182
7,GGGAUGAGAAAGAUGUGCCTT against Cracd,inactive: 0.051
8,GGUACCACCAUGCUAUGGUTT against Krtap19-9b,inactive: 0.646
9,GCAGAAAAUACCCAGUUUGTT against Hmox2,inactive: -0.841
10,GGCUGAGUGCUUCUAUCGUTT against Fam135b,inactive: -0.993
11,GGAAAAUCAACAGCAUCAATT against Olfr661,inactive: -0.642
12,GGUGUGUGAACCAUGUGUGTT against Olfr157,inactive: -1.03
13,GGAAGUCCAUCUCUUUUGCTT against Olfr56,inactive: 0.213
14,GCAAUCCUAUUUGAUGACUTT against Ninj2,inactive: -1.28
15,GCAUCGAAGAGUACCUUCATT against Zeb2,inactive: -0.435
16,GGAUUUCAACUUGUUCUAUTT against Mmp1b,inactive: 1.72
17,CCACAGAGCUGGUGUAAAGTT against Tlx2,inactive: -0.347
18,GGAUACAGUUAAGAGAUAUTT against Xpr1,inactive: -1.34
19,GCUUGAUUUGACCACGCUGTT against Tmem59l,inactive: -0.0828
20,GGCCUAUCUUGUUUAUUUGTT against Tgtp1,inactive: -0.316
21,GGAAGAAAAUGAGAGCACUTT against Mucl1,inactive: -0.894
22,CCAUUACGAAUUUUGCUUUTT against Serpina11,inactive: 0.546

# Rewritten with bars between the fields: entries from further up.
row | Sequence | z-score
14 | GGAAGAGUGCGUUUACCUUTT against Rrp12 | inactive: 0.388
16 | GGGAUACUGGUGCUUAACUTT against Abhd1 | inactive: -0.189
17 | CCACAGAGCUGGUGUAAAGTT against Tlx2 | inactive: -0.347

# Additional records

row,Sequence,z-score
1,GCUGGUAAACAUAGGUGGCTT against C1qtnf4,active: 2.18
2,GGAUCGCUUAGUCUCAUGATT against Inip,inactive: -0.493
3,GGAGUUCCUGAGACAGUACTT against Mcm5,inactive: 0.112
4,GGAAAACUACCUCUUUUGATT against Cbll1,inactive: 1.4
5,GGCAUUUCAACUGGACCCATT against Lamb1,active: -2
6,CCAGAGUUCUGGGAUUCCATT against Cyp2c66,inactive: -0.948
7,GGAUCAGACCAAACUUCAATT against Glrb,inactive: 1.38
8,GGCAUAGUAAUCGAGUACUTT against Dzip1l,inactive: -0.389
9,GGAUCCUGUCAAAGAUAAUTT against Zfp592,inactive: -0.294
10,CGCAUUAUGAAUGACUACUTT against Svs1,inactive: -0.0778
11,GGUCUUUGGACCCUGUUUGTT against Tor1b,inactive: 1.11
12,GGACACACAUUCUUACAAATT against Plpp1,inactive: -1.17
13,GGAAGUUGAAAGACUUACGTT against Tnip2,inactive: -0.185
14,CGGGAUACUUUAAAGAACATT against Sem1,inactive: -1.07
15,GCACAGUAACCUAAAAUACTT against Tanc2,inactive: -1.48
16,CCCAAGCGGUAUCAUAUUUTT against Swt1,inactive: 0.168
17,GGUGGAAAAGCCUUACAGATT against Sry,inactive: 0.731
18,GGUUGUUUUUUGAUACUGATT against Pramel12,inactive: -1.32
19,CCGCUCACAACUUCUACAGTT against Prickle3,inactive: 0.153
